Laboratory results taken from PubChem BioAssay AID624297 (National Center for Advancing Translational Sciences (NCATS), 2012).
Out of some 340,000 compounds screened, about 6,200 (1.8%) were called active. The inconclusive results got no clear call from the source; some entries with a clear call stand among them for comparison. Calls follow the shape of the dose curve; as a rule, active = well fitted activation curve with a large enough effect; inconclusive = small, poorly fitted or top-dose-only effect; inactive = no such curve, though single readings can be large or run the other way. Potencies beside an inconclusive call are fits to weak or partial responses and may not hold up.

test: A quantitative high throughput screen for small molecules that induce DNA re-replication in SW480 colon adenocarcinoma cells.; also: nearly all actives have a fitted effect of over 55% in size; as to re-replication activation: % of control where 0% means no effect; settings: Hoechst DNA content imaging, 48 h; re-replication activation: at 46.1 µM (top of the series) unless noted
In short: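 Quantitative HTS format with DMSO vehicle controls; 48 hr drug incubation at 37 C, then 40 min Hoechst staining and scanning imager measurement at 405 nm excitation.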
Potency is read from the fitted curve at half-maximal effect.

Compound | Potency | re-replication activation
O=C(C1=C[C@@H](c2ccc(C(F)(F)F)cc2)C[C@@H](OCc2ccc(CO)cc2)O1)N1CCN(Cc2ccc3c(c2)OCO3)CC1 | inconclusive: 18.4 µM [activator, single point] | –
CC(=O)C1C(=O)c2c(cccc2[N+](=O)[O-])C1=Nc1cccc(Cl)c1 (stereo not drawn) | inconclusive: 4.11 µM [activator, partial curve, poor fit] | –
Cc1cc(-c2c(C)[nH]n(-c3ccccc3)c2=O)n[nH]1 | inconclusive: 29.1 µM [activator, single point] | –
CCOc1ccc(/C=N/NC(=O)c2c(C)n(C)c3ccc(OC)cc23)cc1 | inconclusive: 20.6 µM [activator, single point] | –
C=CCNC(=O)c1onc(CSc2ccccc2)c1C(=O)NCC=C | inconclusive: 32.6 µM [activator, single point] | –
O=C(c1cccc(F)c1)N1CCN(C(=O)c2cc3nc(-c4ccco4)cc(C(F)(F)F)n3n2)CC1 | inactive | –
Cc1ccc(-c2csc3ncn(CC(N)=O)c(=O)c23)cc1C | – | inconclusive: 45.7% [activator]
O=C(NC1CCCCC1)C(c1ccncc1)N(Cc1ccccc1)C(=O)c1ccc(-c2ccccc2)[nH]1 (stereo not drawn) | inconclusive: 4.61 µM [activator, full curve] | –
COC(=O)c1ccc(C2c3[nH]c4ccccc4c3C[C@H]3C(=O)N(C)CC(=O)N23)cc1 (stereo partly drawn) | inconclusive: 29.1 µM [activator, partial curve, poor fit] | –
CC1CCCC(NC(=O)COC(=O)c2ccc3ncsc3c2)C1C (stereo not drawn) | – | inconclusive: 62.8% [activator]
O=C(CCS(=O)(=O)c1ccc(Cl)cc1)NCCc1c[nH]c2ccccc12 | inconclusive: 29.1 µM [activator, partial curve, poor fit] | –
COc1ccccc1-n1c(=S)sc2c(=O)n(Cc3ccco3)c(SC)nc21 | inactive | –
Cc1cccc(N2CCN(C(=O)Cn3sc4nc(C)cc(C)c4c3=O)CC2C)c1 (stereo not drawn) | inconclusive: 29.1 µM [activator, single point] | –
Oc1ccc(/C=N/N(c2ccccc2)c2ccccc2)cc1O | inconclusive: 29.1 µM [activator, single point] | –
Cc1noc(C)c1S(=O)(=O)N1CCC(C(=O)c2ccccc2)CC1 | inactive | –
Cc1ccc(NC2CCCN(C(=O)c3snnc3C)C2)cc1C (stereo not drawn) | inactive | –
CSCC[C@H](N)C(=O)N1CCC(C(=O)N[C@H](C)C(=O)NC(C)c2ccccc2)CC1 (stereo partly drawn) | inconclusive: 6.51 µM [activator, single point] | –
CC(=O)N/C(=C/c1ccc(OS(=O)(=O)c2ccc(C)cc2)cc1)C(=O)NCCCO | inactive | –
CC(C(=O)N(C)C1CCS(=O)(=O)C1)N1C(=O)/C(=C/c2ccc(F)cc2)SC1=S (stereo not drawn) | inconclusive: 20.6 µM [activator, single point] | –
Cc1cccc(N(C(=O)c2snc(C(N)=O)c2N)C(C(=O)NCC2CCCO2)c2cccs2)c1 (stereo not drawn) | inactive | –
Cc1cccc(-c2nnc(-c3cccc(NC(=O)Cc4cccs4)c3)o2)c1 | inconclusive: 29.1 µM [activator, single point] | –
Clc1ccc(N(CC2CO2)CC2CO2)cc1 (stereo not drawn) | inconclusive: 29.1 µM [activator, partial curve, poor fit] | –

In the list so far, two have an aryl thioether with sulfur outside any ring.
Compound | Potency | re-replication activation
C=CCNC(=O)c1onc(CSc2ccccc2)c1C(=O)NCC=C | inconclusive: 32.6 µM [activator, single point] | –
COc1ccccc1-n1c(=S)sc2c(=O)n(Cc3ccco3)c(SC)nc21 | inactive | –

Going on with the list.

Compound | Potency | re-replication activation
C/C=C(/C(=C/C)c1ccc(O)cc1)c1ccc(O)cc1 | inconclusive: 29.1 µM [activator, single point] | –
COC(=O)C1=CNC=C(C(=O)OC)C1c1ccc(Cl)cc1 | inconclusive: 14.1 µM [activator, partial curve, poor fit] | –
CCOC(=O)C(CC)(CC)C(=O)/C=C/c1ccc(OC)cc1 | inconclusive: 23.1 µM [activator, single point] | –
COCCCNC(=O)c1cc(-c2cccnc2)nc2ccc(S(=O)(=O)N3CCCCCC3)cc12 | inactive | –
CCC(C(=O)N1CCN(S(C)(=O)=O)CC1)c1ccccc1 (stereo not drawn) | inactive | –
COc1ccc(CCN2C(=O)CSC2=Nc2ccc(C(C)C)cc2)cc1OC | active: 9.2 µM | –
Cc1cccc(/C=C/c2nc3ccccc3c(=O)[nH]2)c1 | active: 5.17 µM | –
COc1ccc(/C=N\NC(=O)c2ccccc2Cl)cc1COc1c(F)c(F)c(F)c(F)c1F | inconclusive: 29.1 µM [activator, single point] | –
COC(=O)c1ccc(NN=Nc2ccc(C)cc2)cc1 | inactive | –
Cc1ncc([N+](=O)[O-])n1CC(C)O (stereo not drawn) | inconclusive: 14.6 µM [activator, single point] | –
CCn1c(CN2CCN(c3ccc(Cl)cc3)CC2)nc2ccccc21 | inactive | –
COc1ccc(C(=O)N/N=C(\C)Cn2cnc([N+](=O)[O-])n2)cc1 | inconclusive: 25.9 µM [activator, partial curve, poor fit] | –
O=C(CN1C(=O)CS/C1=C\c1nc(-c2ccc(Cl)cc2)cs1)Nc1cccnc1Cl | inconclusive: 1.03 µM [activator, single point] | –
COc1cc(-c2nnc(Sc3ccc(C(F)(F)F)cc3[N+](=O)[O-])o2)cc(OC)c1OC | inconclusive: 29.1 µM [activator, single point] | –
COC(=O)C1C(=O)C2=C(CC1C)NC(C)=C(C(=O)OCCOc1ccccc1)C2c1ccc(C)o1 (stereo not drawn) | inactive | –
O=[N+]([O-])c1ccc(S(=O)(=O)NN=Cc2ccc(Cl)c(Cl)c2)cc1 | inactive | –
CC1CC(C)(C)CC2(C1)NC(=O)N(CC(=O)N1CCN(S(=O)(=O)c3cccs3)CC1)C2=O (stereo not drawn) | inactive | –
COC(=O)[C@@]1(Cc2ccc(F)cc2)[C@H]2c3cc(C(=O)N(C)C)n(CCc4ccc(OC)c(Br)c4)c3C[C@H]2CN1C(=O)c1ccccc1 | inconclusive: 2.31 µM [activator, partial curve, poor fit] | –
O=C(Nc1cc(C(F)(F)F)ccc1Cl)C(Sc1cccc[n+]1[O-])c1ccccc1 (stereo not drawn) | inconclusive: 29.1 µM [activator, single point] | –
CC1Cc2ccccc2N1C(=O)c1nn(C)cc1Br (stereo not drawn) | inactive | –
N#CCSc1ncnc2sc3c(c12)CCC3 | inactive | –

Reprinted from above, two compounds:
Compound | Potency | re-replication activation
COC(=O)c1ccc(NN=Nc2ccc(C)cc2)cc1 | inactive | –
Cc1ncc([N+](=O)[O-])n1CC(C)O (stereo not drawn) | inconclusive: 14.6 µM [activator, single point] | –
